Measurements from patent US20180289957A1, “REMINERALISATION OF CALCIFIED TISSUE” (Reminova Ltd., priority 2008, published 2018).

Test system: extracted tooth
Assay: Current-time response of an extracted tooth (saline pad) after hypochlorite pre-treatment
Procedure: In this experiment the current-time responses of an extracted tooth after the application of −I V at the working electrode were recorded. One electrode the shorted reference/counter electrode) was a 0.5 mm stainless steel wire inserted into the tooth root. The other electrode (the working electrode) was a Pt sheet electrode of area ca 0.25 cm^2 held in contact with a saline-soaked tissue pad, which in turn was held in contact with the tooth surface close to the enamel lesion.
The initial current after this topical hypochlorite pre-treatment was 18 μA, over 20% higher than that of the tooth before pre-treatment, and the extended-time current was similar.

In the case of OCl [hypochlorite, sodium hypochlorite], the “initial current after topical hypochlorite pre-treatment” value (saline response, hypochlorite-soaked pad 3 mins, no voltage during pre-treatment, -1 V at working electrode) is reported as 18 μA and the “initial current higher than that of the tooth before pre-treatment” value (topical hypochlorite pad 3 mins) is reported as “over 20%”.
